Measurements reported in PubChem BioAssay AID1224830 (NIAID, 2016).
In all, the deposit lists about 18,000 reagents; shown is an unselected part. About 2,900 of them (16%) count as active. 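Calls are made per well; low scores hint the gene aids the LPS response, high scores that it dampens it.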 Entries without a mark were called inactive. Repeated entries: four replicate wells of each siRNA pool.

Assay: 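Host factors that control LPS-induced TNF expression in human macrophages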 (primary screen)
Cell system: human THP-1 monocytic leukaemia cells, TNF dual-luciferase reporter clone, PMA-differentiated to macrophage-like cells
Knock-down reagent: siRNA pool against human genes, 50 nM
Timing: LPS for 4 h, given about 3 days after siRNA transfection
Challenge: bacterial LPS (TLR4 ligand), 10 ng/ml
Measurement: 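TNF firefly reporter luminescence divided by renilla, normalised to the plate median, then turned into a robust z-score for each replicate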
Reading the numbers: TNF reporter robust z-score: higher = stronger TNF reporter response to LPS
Call rule: 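Each well counts as active if its z-score is over 2.8 or under -1.5; controls are left without a call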

target | TNF reporter robust z-score
ARHGEF1 | 1.91
ARHGEF1 | 2.17
ARHGEF1 | 2.44
ARHGEF1 | -0.51
ACTR5 | -0.89
ACTR5 | 1.29
ACTR5 | 0.41
ACTR5 | 0.26
BLZF1 | 0.63
BLZF1 | -0.6
BLZF1 | 1.27
BLZF1 | 1.15
EEF2KMT | -1.06
EEF2KMT | -0.73
EEF2KMT | -0.7
EEF2KMT | -0.52
MAMSTR | 0.34
MAMSTR | 0.19
MAMSTR | -0.29
MAMSTR | -0.17
OR10AD1 | 1.54
OR10AD1 | 0.53
OR10AD1 | 1.92
OR10AD1 | -0.13
ZNF623 | 0.47
ZNF623 | -0.22
ZNF623 | -0.26
ZNF623 | 0.34
DYRK1B | -1.17
DYRK1B | 0.61
DYRK1B | -0.7
DYRK1B | -0.2
SGK1 | -0.75
SGK1 | 0.11
SGK1 | 0.18
SGK1 | -1.31
TMEM167B | -0.24
TMEM167B | -0.82
TMEM167B | -0.98
TMEM167B | -0.13
LRRN4 | 0.2
LRRN4 | 0.74
LRRN4 | 0.36
LRRN4 | -0.63
CCDC34 | 2.15
CCDC34 | 0.11
CCDC34 | 0.05
CCDC34 | 2.72
ZMYND10 | -0.5
ZMYND10 | 0.12
ZMYND10 | -0.29
ZMYND10 | -0.67
FZD5 | -0.54
FZD5 | -0.27
FZD5 | -1.06
FZD5 | -0.15
TRIM43B | -1.61 (active)
TRIM43B | -0.66
TRIM43B | -1.15
TRIM43B | 0.21
ZNF425 | -0.81
ZNF425 | -0.49
ZNF425 | -0.68
ZNF425 | 0.37
KCND1 | -0.18
KCND1 | 0.92
KCND1 | 1.08
KCND1 | 0.45
MRPS7 | -0.92
MRPS7 | 0.69
MRPS7 | -0.09
MRPS7 | -0.17
IL17RE | -0.22
IL17RE | 0.54
IL17RE | 0.65
IL17RE | 1.55
C5orf15 | 0.45
C5orf15 | 1.32
C5orf15 | 0.93
C5orf15 | -0.21
ONECUT2 | -0.18
ONECUT2 | -1.63 (active)
ONECUT2 | -1.85 (active)
ONECUT2 | -1.62 (active)
PLA2G4E | 0.06
PLA2G4E | -0.2
PLA2G4E | -0.48
HTR4 | -0.32
HTR4 | -0.46
HTR4 | -0.23
HTR4 | 0.16
OR10T2 | 0
OR10T2 | 0.01
OR10T2 | 0.03
OR10T2 | 0.41
BANF1 | 2.75
BANF1 | 1.46
BANF1 | 2.7
BANF1 | 0.57
C7orf33 | 0.07
C7orf33 | 0.91
C7orf33 | -0.31
C7orf33 | 0.4
VGLL2 | -1.53 (active)
VGLL2 | -1.36
VGLL2 | -1.18
VGLL2 | -1.09
RASA2 | -0.57
RASA2 | -0.37
RASA2 | -0.15
RASA2 | -0.42
